For 17 compounds, AC50 results are on record in PubChem BioAssay AID493014 (National Center for Advancing Translational Sciences (NCATS), 2011).

The structures appear in SMILES notation. The list shows a part of the results. Further columns of the screen follow, without active or inactive calls. Compounds called inactive in the main read-out are mostly missing here. The note in brackets gives the kind of curve behind each potency; many fits are weak.

The assay in a line: qHTS Assay to Find Inhibitors of Chronic Active B-Cell Receptor Signaling. The conditions noted are these: ABC-DLBCL IkBa-CBG/CBR reporter, luminescence ratio (green luciferase fused to IkBa over red control in TMD8 lymphoma cells), 4 h. An outline of the steps: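 Cell line TMD8 (human ABC DLBCL), stably expressing tet-inducible CBG68-IkBa fusion and CBR; IMDM/0.5% FBS; cpd up to 46 uM; dox induction, 4 h, 37C/5% CO2; dual luminescence; green/red ratio; MG132 control.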

Where [1] appears, read: measured here: CBR red luminescence, cell number.
Where [2] appears, read: measured here: IkBa-CBG green luminescence.

As usually defined, the AC50 is the concentration giving half of the maximal activity seen. As for `CCOc1ccccc1NC(=O)N1CCC(N2CCN(Cc3ccccc3)C(=O)C2=O)CC1`, the AC50 reads like this: under setting [1], 11.2 µM [rising, partial curve, poor fit]; under setting [2], 12.6 µM [falling, partial curve].
Regarding `CCOC(=O)COc1ccccc1/C=N\NC(=O)c1cc2c(ccc3ccccc32)o1`, under setting [1], the AC50 was 7.08 µM [falling, partial curve].
For the compound `COc1ccccc1N=Nc1[nH]c2ccc(C)cc2c1O`, the AC50 under setting [1] is 0.92 µM [rising, full curve, poor fit].
On the same count and under the same terms, the same measure for `CCCN1CCN(CCCNC(=O)c2ccc3c(Cl)c4c(nc3c2)CCCC4)CC1`: 25.1 µM [falling, single point].
The same measure, in the same setting: the same measure for `COc1ccc(-c2csc(Nc3ccccc3)n2)cc1`: 11.2 µM [falling, single point]; for `O=C(Nc1ccc2cn[nH]c2c1)c1c(Cl)cccc1Cl`: 29.1 µM [falling, single point].
`CC(C)CC(=O)NC(=S)Nc1ccc(F)cc1F`: the AC50 under setting [1] was 3.55 µM [rising, single point].
Still for that read-out and setting: the same measure for `CC(=O)c1cccc(NC(=O)c2ccc(N(Cc3ccccc3C)S(C)(=O)=O)cc2)c1`: 25.9 µM [falling, single point].
For `CCOc1ccc(C(=O)Nc2cc(-c3nc4ccccc4[nH]3)ccc2Cl)cc1[N+](=O)[O-]`, the AC50 under setting [2] is 3.66 µM [falling, partial curve, poor fit].
In the case of `CCCCCCCCSc1nnc2[nH]c(=O)cc(N)n12`, the AC50 under setting [1] was 0.447 µM [falling, full curve, poor fit].
In the case of `COC(=O)COc1c(Cl)cc(C(c2c(C)[nH][nH]c2=O)c2c(C)[nH][nH]c2=O)cc1OC`, under setting [1], the AC50 is 20 µM [falling, partial curve, poor fit].
Still for that read-out and setting: the same measure for `Cc1noc(C)c1CSCC(=O)N(CC(C)C)c1c(N)n(Cc2ccccc2)c(=O)[nH]c1=O`: 29.1 µM [rising, partial curve, poor fit]; for `Cc1noc(NS(=O)(=O)c2ccc(NC(=O)/C=C/c3ccc(C(C)C)cc3)cc2)c1C`: 35.5 µM [falling, single point]; for `CC(C)c1ccc(OCC(=O)N2CCCCCC2)c(Br)c1`: 0.631 µM [rising, full curve, poor fit].
Same read-out and setting: the same measure for `O=C(NCCc1ccc(Cl)cc1)c1ccc2c(c1)N(Cc1ccccc1)C(=O)CS2`: 25.1 µM [rising, single point]; for `Cc1c(C(=O)NC2CCCCC2)sc2ncnc(N3CCN(c4ccccc4)CC3)c12`: 20 µM [falling, single point].
On the same count and under the same terms, the same measure for `O=C(CSc1oc(-c2ccco2)nc1S(=O)(=O)c1ccccc1)NCC1CCCO1` (stereo not drawn): 13 µM [rising, partial curve].
